Among all 360,000 compounds or so, about 7,500 (2.1%) were called active. Inconclusive results, whose numbers are uncertain, are shown with a selection of clear calls. Calls follow the shape of the dose curve; as a rule, active = well fitted inhibition curve with a large enough effect; inconclusive = small, poorly fitted or top-dose-only effect, or effect the other way; inactive = flat fitted curve, though single readings scatter. A potency beside an inconclusive call is a rough fit, not a confirmed value.
Assay: Nrf2 qHTS screen for inhibitors; also: nearly all actives have a fitted effect of over 60% in size
Settings: A549 ARE-Fluc reporter, luciferase luminescence, 18-24 h; activity change, negative = inhibition: at 46 µM (top of the series)
How it was run: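 Nrf2 activity is the BugLite luminescence, read 15 min after reagent at room temperature, following CellTiter-Fluor cytotoxicity readout (30 min, 37C). Compound titrations were applied for 18-24 h to 5000 A549 ARE_Fluc cells/well in 5% FBS OPTI-MEM.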
% is scaled to controls: 0 for no effect and ±100 for the full control effect; potency is read from the fitted curve at half-maximal effect.

SMILES	Potency	activity change, negative = inhibition
Cc1ccc(CN(C)C(=O)C2CCC(=O)N(CCc3ccccc3)C2)o1 (centres undefined)	inconclusive: 5.17 µM [activator, full curve, poor fit]	
C=C(C)Cn1c(=O)c2c(nc3n2CCN3c2ccc(CC)cc2)n(C)c1=O	inconclusive: 13 µM [activator, partial curve]	
COc1cccc(Nc2ccccc2C(=O)O)c1	inconclusive: 23.1 µM [activator, partial curve, poor fit]	
Fc1cc(F)cc(Nc2nc(Cl)nc(NC3CCCC3)n2)c1	inactive	
Nc1nc(Nc2cccc(Cl)c2)nc(NCc2ccco2)c1[N+](=O)[O-]	inconclusive: 14.6 µM [activator, partial curve]	
Cc1cc(C)cc(C(=O)NC(=S)Nc2ccc(-c3cc4ccccc4oc3=O)cc2)c1	active: 3.66 µM	
CCOC(=O)CCCc1ccc(/C(C)=N/NC(=S)NC)cc1		inactive: -24%
CC(C)(C)c1ccc(OCC(=O)NNC(=O)c2cccnc2)cc1	inconclusive: 11.6 µM [falling, partial curve]	
CCc1cccc(NC(=O)c2cccc3c2C(=O)N(CC2CCCO2)C3)c1 (centres undefined)	inconclusive: 8.2 µM [falling, partial curve]	
CCCc1nc2ccc(NC(C)=O)cc2c(=O)n1Cc1cccc(Cl)c1		inactive: -6.78%
Cc1ccc(C)c(OCCC(=O)N2CCN(S(=O)(=O)c3cc(C)ccc3C)CC2)c1	inconclusive: 23.1 µM [falling, partial curve, poor fit]	
CCCNc1nc(NCC)nc(OC)n1	inconclusive: 32.6 µM [activator, partial curve, poor fit]	
COc1ccc(-n2nc(C(=O)NCC(=O)NCCC3=CCCCC3)c3ccccc3c2=O)cc1OC		inactive: -12.4%
COc1ccc(CNc2nc3nc(C)cc(C)n3n2)cc1	inconclusive: 6.51 µM [activator, single point]	
Cc1ccccc1OCC(=O)N/N=C/c1cccc2cccnc12	inconclusive: 29.1 µM [falling, partial curve, poor fit]	
COc1ccccc1NS(=O)(=O)c1cccc(NC(=O)c2sc3ccccc3c2Cl)c1	active: 9.2 µM	
O=C(NCc1ccccc1)c1ccc2c(=O)n(CC3CCCO3)c(=S)[nH]c2c1 (centres undefined)	inconclusive: 29.1 µM [falling, single point]	
O=C(NCC(c1cccnc1)N1CCN(c2ccc(F)cc2)CC1)c1ccc2c(c1)OCO2 (centres undefined)	inconclusive: 29.1 µM [falling, partial curve, poor fit]	
COc1ccc(NC(=O)CSc2nc(N)c3cc4c(nc3n2)CC(C)(C)OC4)cc1	inconclusive: 29.1 µM [activator, single point]	

Two entries from above, comma-delimited.
SMILES,Potency,"activity change, negative = inhibition"
CC(C)(C)c1ccc(OCC(=O)NNC(=O)c2cccnc2)cc1,"inconclusive: 11.6 µM [falling, partial curve]",
Cc1ccccc1OCC(=O)N/N=C/c1cccc2cccnc12,"inconclusive: 29.1 µM [falling, partial curve, poor fit]",

— PubChem BioAssay AID504444 (National Center for Advancing Translational Sciences (NCATS), 2011)
